Assay [1] addresses SMAD2 protein (in NIH-3T3 cells) (mouse (endogenous in NIH-3T3)) (UniProt Q62432). In words: co-IP; Flag-tagged WWP2-FL, WWP2-N and WWP2-C ectopically expressed in NIH-3T3 cells; cell lysates, Pierce Direct Magnetic IP/CO-IP kit, western blot; SMAD7 rows following TGFβ1 stimulation.
Assay [2] addresses SMAD7 (in NIH-3T3 cells) (mouse (endogenous in NIH-3T3)) (UniProt O35253). Described as above.
Assay [3] concerns the target SMAD2, endogenous (mouse cardiac (myo)fibroblasts) (mouse (endogenous in primary cardiac (myo)fibroblasts)) (UniProt Q62432). In words: co-IP; endogenous proteins in mouse WT primary cardiac (myo)fibroblasts, TGFβ1 stimulation; cell lysates, Pierce Direct Magnetic IP/CO-IP kit, western blot. A general note: A western blot detects proteins with antibodies after separation by electrophoresis.

Chains of the proteins cited; added tags and fusions are not shown.
UniProt Q62432: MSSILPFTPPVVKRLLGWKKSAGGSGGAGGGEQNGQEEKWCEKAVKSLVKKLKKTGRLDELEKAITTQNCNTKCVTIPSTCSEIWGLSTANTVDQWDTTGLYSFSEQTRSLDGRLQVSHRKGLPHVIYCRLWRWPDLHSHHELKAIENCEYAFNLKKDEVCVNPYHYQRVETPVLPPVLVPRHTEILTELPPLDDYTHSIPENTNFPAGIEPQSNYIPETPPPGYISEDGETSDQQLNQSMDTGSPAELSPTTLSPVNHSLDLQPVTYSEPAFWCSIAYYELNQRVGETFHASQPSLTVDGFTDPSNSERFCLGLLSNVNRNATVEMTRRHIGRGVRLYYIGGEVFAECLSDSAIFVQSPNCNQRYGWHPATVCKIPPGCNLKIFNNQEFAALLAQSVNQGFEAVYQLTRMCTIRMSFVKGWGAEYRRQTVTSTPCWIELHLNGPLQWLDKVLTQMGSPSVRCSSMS
UniProt O35253: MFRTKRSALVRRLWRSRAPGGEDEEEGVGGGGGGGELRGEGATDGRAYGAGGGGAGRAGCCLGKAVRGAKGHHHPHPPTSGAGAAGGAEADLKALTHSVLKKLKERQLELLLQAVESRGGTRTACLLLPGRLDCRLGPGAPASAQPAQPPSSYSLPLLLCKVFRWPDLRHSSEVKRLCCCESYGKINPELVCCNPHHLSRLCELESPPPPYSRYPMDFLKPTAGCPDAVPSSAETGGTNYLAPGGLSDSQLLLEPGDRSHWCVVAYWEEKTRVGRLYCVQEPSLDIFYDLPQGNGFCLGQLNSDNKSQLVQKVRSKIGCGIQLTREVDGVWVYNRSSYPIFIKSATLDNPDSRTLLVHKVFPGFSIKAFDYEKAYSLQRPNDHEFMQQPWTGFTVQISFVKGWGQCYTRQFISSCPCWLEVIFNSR
UniProt Q9DBH0: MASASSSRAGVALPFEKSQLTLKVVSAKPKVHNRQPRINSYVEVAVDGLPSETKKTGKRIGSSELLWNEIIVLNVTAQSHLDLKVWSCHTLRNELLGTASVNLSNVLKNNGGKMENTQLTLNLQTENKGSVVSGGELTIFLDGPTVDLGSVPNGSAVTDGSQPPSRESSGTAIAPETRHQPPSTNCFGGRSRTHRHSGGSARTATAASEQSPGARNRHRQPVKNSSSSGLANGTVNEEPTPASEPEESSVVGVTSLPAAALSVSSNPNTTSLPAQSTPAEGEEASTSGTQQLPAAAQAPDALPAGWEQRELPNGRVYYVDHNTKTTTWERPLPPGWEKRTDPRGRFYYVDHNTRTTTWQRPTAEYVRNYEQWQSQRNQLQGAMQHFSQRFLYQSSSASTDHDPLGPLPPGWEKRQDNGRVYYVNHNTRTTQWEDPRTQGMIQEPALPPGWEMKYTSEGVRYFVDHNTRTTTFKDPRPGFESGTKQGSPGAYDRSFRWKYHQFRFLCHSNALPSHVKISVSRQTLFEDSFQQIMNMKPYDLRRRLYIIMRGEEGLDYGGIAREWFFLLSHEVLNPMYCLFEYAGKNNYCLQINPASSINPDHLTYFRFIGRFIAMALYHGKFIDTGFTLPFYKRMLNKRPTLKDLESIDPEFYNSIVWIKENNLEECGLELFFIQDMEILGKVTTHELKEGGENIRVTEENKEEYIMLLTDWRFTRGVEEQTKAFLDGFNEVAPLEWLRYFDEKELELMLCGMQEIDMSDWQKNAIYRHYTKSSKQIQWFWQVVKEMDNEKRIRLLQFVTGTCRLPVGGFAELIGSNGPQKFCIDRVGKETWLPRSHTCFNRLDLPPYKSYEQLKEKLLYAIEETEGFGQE

Assay [4] deals with SMAD7 (primary (myo)fibroblasts) (mouse (endogenous in primary cardiac (myo)fibroblasts)) (UniProt O35253). The description is as above.

The record followed here is paper PMC6689010.

These are yes or no findings as the source states them, for the method shown. Binding seen in cells or lysates may run through a third protein. Some binding calls cover weakened binding; strength is not graded here.

Turning to “Flag-tagged WWP2-FL (full-length isoform of the E3 ubiquitin ligase WWP2) (from UniProt Q9DBH0 1-870) (enzyme)”, the binding entry in assay [1] and in assay [2] was “binds” each time.

Turning to “WWP2-FL, endogenous (mouse cardiac (myo)fibroblasts) (from UniProt Q9DBH0 1-870) (enzyme)”, the binding entry in assay [3] and in assay [4] was “binds” in each case.
